# Assay results published in patent publication US11446307B2, “Crystalline forms of a deoxycytidine kinase inhibitor and uses thereof” (Trethera Corporation, priority 2020, dated 2022).
# Entries after “also recorded” stand apart in the source; their conditions may differ. At least one structure is not confirmed: it was looked up by name or label, or the drawing left a doubt.
# Experiments:
# [1] = system: myelin oligodendrocyte glycoprotein (MOG)-induced experimental autoimmune encephalomyelitis (EAE); experiment: Mouse model of MOG-induced experimental autoimmune encephalomyelitis (EAE), prophylactic and therapeutic dosing; assay type: in vivo; conditions: for EAE clinical score / disease profile over time: 1 mg/kg S.C. Days 1-25 (prophylactic, positive control)
# Experimental: Adult female C57BL/6J mice were randomly allocated to experimental groups and allowed to acclimatize for one week prior to commencing the study. On Day 0 and Day 7, animals were administered an emulsion (200 μL/mouse) of MOG35-55 and complete Freund's adjuvant (CFA). […]. On Day 0 (immediately post-MOG injection) and Day 2, animals were administered with pertussis toxin (PTx, 500 ng/mouse) prepared in phosphate buffered saline (PBS, 100 μL/mouse) by intra-peritoneal injection.
# Treatment was performed twice daily (BID) prophylactically starting on Day 1 for groups 1, 2, and 4, and therapeutically starting on day 8 for group 3. All experimental groups were n=12. The administration interval was 12 hours and the administration volume was 5 mL/kg.
# Because body weight loss is known to be an important hallmark of EAE occurring in correspondence of the appearance of the first symptoms, animals were weighed daily from the day of immunization (Day 0) until the end of the experiment. The changes in body weight observed over the course of the experiment for the different experimental groups, presented as mean±SEM, are summarized in FIG. 7. […] A marked bodyweight loss was observed immediately after the first MOG35-55 administration, after which time the body weight gradually returned to normal.
# From Day 0 until the end of the experiment, animals were scored daily for clinical signs of EAE to include paresis and paralysis affecting the tail and the limbs. The following scale was used: • (0) no abnormality, the animal moves and behaves normally; • (1) limp tail, the tail hangs limp when the mouse is held at the base of the tail; • (2) partial hind limb paralysis, spastic paresis or paralysis affects one hind limb; • (3) total hind limb paralysis, spastic paresis or paralysis affects both hind limbs; • (4) front and hind limb paralysis, spastic paresis or paralysis affects one or both front limbs; • (5) moribund. The changes in EAE score observed over the course of the experiment for the different experimental groups, presented as mean±SEM, are summarized in FIG. 9. […] On day 8, treatments with Compound 1 started for group 3 which was administered with vehicle until that day.
# The cumulative disease scores for the different experimental groups, presented as mean±standard error of the mean (SEM), are summarized in FIG. 11.
# An additional parameter considered for EAE analysis is plotting and analyzing “extended data”. […] This is a common method to represent the EAE disease profile that can be used to assess a group effect.
# IFN-γ = experiment: Plasma IFN-γ levels (Luminex) in MOG-EAE mice; assay type: in vivo, mouse; conditions: 1 mg/kg S.C. Days 1-25; vs vehicle; not statistically significant (p=0.096)
# [2] = system: tumor necrosis factor α (TNF-α); experiment: Plasma TNF-α levels (Luminex) in MOG-EAE mice; assay type: in vivo, mouse; conditions: 1 mg/kg S.C. Days 1-25; vs vehicle; not statistically significant
# Interleukin 17a (IL-17a) = experiment: Plasma IL-17a levels (Luminex) in MOG-EAE mice; assay type: in vivo, mouse; conditions: 1 mg/kg S.C. Days 1-25; vs vehicle; not significant
# [3] = 1 mg/kg S.C. Days 1-25, vs vehicle, p<0.0001
compound,measurement,setting,value
"C[C@@H]1C[C@H]2[C@@H]3CCC4=CC(=O)C=C[C@]4(C)[C@@]3(F)[C@@H](O)C[C@]2(C)[C@@]1(O)C(=O)CO [Dexamethasone, reference compound]",EAE clinical score / disease profile over time,[1]; vs vehicle,significantly ameliorated the disease profile
same,EAE clinical score / disease profile over time,"[1]; vs vehicle, listed as dexamethasone",statistically significantly reduced the EAE scores
same,mean cumulative disease score,"[1]; 1 mg/kg S.C. Days 1-25, Dunn's test vs vehicle, p<0.0001",significant difference
same,spleen weight at termination,"[1]; 1 mg/kg S.C. Days 1-25, vs vehicle",significantly lower spleen weights
same,AUC of EAE clinical scores,[1]; [3],significantly lowered the curve; also recorded: statistically significantly reduced
same,AUC of extended disease scores,[1]; [3],significantly lowered the curve
same,extended disease score profile (all animals scored until Day 25),[1]; [3],significantly ameliorated the disease profile
same,plasma IFN-γ level,IFN-γ,decreasing trend
same,plasma TNF-α level,[2],very slight decreases
same,plasma IL-17a level,Interleukin 17a (IL-17a),reduction
